Measurements: article PMC7862700
Only a part is listed here, and it is no random draw. At the low end of the ranking the order means little.

Sequences of proteins named here, by UniProt entry; tags and fusion partners are left off. A change or cut given only in a name is not applied to a line headed by its entry.
UniProt P41161: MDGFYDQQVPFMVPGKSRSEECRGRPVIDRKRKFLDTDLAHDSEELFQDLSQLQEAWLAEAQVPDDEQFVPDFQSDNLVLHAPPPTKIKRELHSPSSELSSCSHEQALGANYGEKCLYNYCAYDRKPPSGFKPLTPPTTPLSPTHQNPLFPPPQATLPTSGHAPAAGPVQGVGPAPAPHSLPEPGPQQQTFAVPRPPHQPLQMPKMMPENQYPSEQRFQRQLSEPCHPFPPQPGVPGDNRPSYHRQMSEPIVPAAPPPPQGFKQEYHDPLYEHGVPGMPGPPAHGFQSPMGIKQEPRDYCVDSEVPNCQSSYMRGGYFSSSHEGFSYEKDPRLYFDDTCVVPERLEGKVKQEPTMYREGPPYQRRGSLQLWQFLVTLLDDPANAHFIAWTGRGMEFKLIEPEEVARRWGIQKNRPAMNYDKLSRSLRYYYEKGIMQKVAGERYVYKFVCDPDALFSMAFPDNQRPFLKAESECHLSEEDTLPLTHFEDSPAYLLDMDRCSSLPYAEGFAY
UniProt Q01892: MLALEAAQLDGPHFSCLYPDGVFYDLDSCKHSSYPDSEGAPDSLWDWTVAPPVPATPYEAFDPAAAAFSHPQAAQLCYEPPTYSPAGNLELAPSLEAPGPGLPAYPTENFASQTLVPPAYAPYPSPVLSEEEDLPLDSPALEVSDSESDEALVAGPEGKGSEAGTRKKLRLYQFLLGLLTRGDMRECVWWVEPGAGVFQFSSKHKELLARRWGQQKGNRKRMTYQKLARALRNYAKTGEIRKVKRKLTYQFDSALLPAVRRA

Assays:
Experiment in all cases: DAPPL (digital affinity profiling via proximity ligation, sequencing)
Settings in all cases: 10 mM Tris-HCl pH 7.5, 50 mM NaCl, 1 mM DTT, 4% glycerol, room temperature, 30 min; GST-TFs on glutathione beads, 16-mer random dsDNA library, 0.1% …; high values mean tight binding; double strand, one strand shown; scale: fold enrichment (6-mer frequency, TF over GST control)
EHF = target: T1, EHF (UniProt Q9NZC4)
T1 sequence: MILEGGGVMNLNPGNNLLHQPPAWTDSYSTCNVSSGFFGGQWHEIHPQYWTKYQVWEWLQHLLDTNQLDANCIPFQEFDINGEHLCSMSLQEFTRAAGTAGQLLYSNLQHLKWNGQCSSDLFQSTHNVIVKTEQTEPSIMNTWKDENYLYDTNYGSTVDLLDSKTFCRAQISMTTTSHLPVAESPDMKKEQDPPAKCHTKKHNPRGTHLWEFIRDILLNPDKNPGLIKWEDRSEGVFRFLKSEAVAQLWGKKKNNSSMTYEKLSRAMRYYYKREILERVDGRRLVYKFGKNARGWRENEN

ETV5 = ETV5 (UniProt P41161)
ETV2 = target: T2, ETV2 (UniProt O00321)
T2 sequence: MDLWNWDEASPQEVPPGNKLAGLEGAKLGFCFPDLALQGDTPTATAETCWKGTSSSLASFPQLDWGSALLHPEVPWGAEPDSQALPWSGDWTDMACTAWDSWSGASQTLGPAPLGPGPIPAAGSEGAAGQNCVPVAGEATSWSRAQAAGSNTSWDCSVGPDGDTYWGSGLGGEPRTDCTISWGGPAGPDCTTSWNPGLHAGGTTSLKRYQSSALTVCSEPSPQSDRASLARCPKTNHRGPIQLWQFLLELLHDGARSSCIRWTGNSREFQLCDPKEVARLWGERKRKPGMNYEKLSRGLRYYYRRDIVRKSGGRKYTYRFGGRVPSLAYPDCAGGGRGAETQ

SPIB = SPIB (UniProt Q01892)
ETV3L = target: T3, ETV3L (UniProt Q6ZN32)
T3 sequence: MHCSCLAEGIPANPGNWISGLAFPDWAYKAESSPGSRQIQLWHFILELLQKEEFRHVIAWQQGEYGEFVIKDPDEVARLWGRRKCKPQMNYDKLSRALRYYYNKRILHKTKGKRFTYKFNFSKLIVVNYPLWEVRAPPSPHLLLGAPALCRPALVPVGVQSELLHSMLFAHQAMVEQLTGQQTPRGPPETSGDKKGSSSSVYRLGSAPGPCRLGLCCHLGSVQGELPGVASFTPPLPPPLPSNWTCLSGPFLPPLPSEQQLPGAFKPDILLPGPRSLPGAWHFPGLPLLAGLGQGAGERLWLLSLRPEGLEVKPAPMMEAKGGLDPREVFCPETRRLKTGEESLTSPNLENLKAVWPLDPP

Sequence	binding signal (EHF)	binding signal (ETV5)	binding signal (ETV2)	binding signal (SPIB)	binding signal (ETV3L)
CTGCAT	1.47	1.46	1.28	–	–
GTTTGC	1.11	0.977	0.991	–	–
TGGCGT	0.906	0.941	1.05	0.942	0.996
GATGGG	1.02	0.929	0.94	–	1.02
ATTTTG	1.3	1.28	1.33	–	–
ATTTAG	1.14	1.06	1.3	1.16	–
TGCCGG	1.03	1.04	0.889	–	0.954
CGCCAT	–	0.98	0.866	0.984	1.08
CATACG	–	1.08	0.958	0.99	–
AATGGA	0.991	1.05	0.979	–	–
CACCCA	0.963	0.968	0.976	1.03	0.976
ATTGAG	–	0.994	0.935	0.939	0.996
GGATCT	0.97	0.997	0.962	1.02	–
AGAAAC	0.977	0.977	0.89	0.948	0.971
GTCACG	–	0.949	0.897	0.992	0.996
GCGTCC	1.22	1.16	1.08	1.3	–
ACTGAC	–	1.19	1.3	1.21	1.19
GCTCAC	1.51	1.47	1.63	1.44	1.57
ATGGGG	1.11	0.986	1.16	1.14	1.16
ACCGTT	0.861	0.981	0.901	0.944	0.934
CGCAAC	–	0.977	0.932	0.981	0.953
TCGAGC	0.924	0.992	1.04	–	–
TTGACG	1.2	0.985	1.23	–	–
TTTGCA	–	1.22	1.24	1.29	–

Sequence	binding signal (EHF)	binding signal (ETV5)	binding signal (ETV2)	binding signal (SPIB)	binding signal (ETV3L)
CCATTA	1.06	1.06	1.15	–	–
TCAACA	1.05	1.04	0.95	–	–
AGAACA	–	0.963	1.03	0.985	1.01
TGGGCA	0.954	1.04	0.818	0.984	–
TCCTGC	1.53	1.83	1.49	1.81	1.71
CTTCCG	7.93	8.45	7.7	–	–
GCTTTT	0.99	1.09	0.97	–	–
TCAGCC	0.97	0.961	1.03	–	–
CTCACA	1.42	1.31	1.35	–	1.38
GCCCGA	0.994	0.909	0.861	0.891	1.01
GCTGCC	1.24	1.04	0.919	–	1.03
ACATAG	–	1.08	1.11	1.01	0.964
CCACAG	0.998	0.928	0.923	0.921	0.922
GATACA	0.982	0.973	0.978	0.933	1.05
GGATGT	1.74	1.77	1.44	–	–
CATGGC	–	0.996	1.04	0.966	–
TGAACA	–	1.2	1.27	1.23	–
ACATCG	–	1.04	0.987	1.1	–
TATACA	–	1.35	–	–	1.3
CCCCGC	–	1.18	0.995	1.19	–
AACTAT	–	1.37	1.49	1.29	–
GCACCT	–	0.99	–	–	0.973
TCATAT	–	1.23	–	–	1.3
TTAAGA	–	0.986	–	–	0.98

Sequence	binding signal (EHF)	binding signal (ETV5)	binding signal (ETV2)	binding signal (SPIB)	binding signal (ETV3L)
CCGAAT	–	1.14	–	–	1.24
CACGTA	–	1.13	–	–	1.17
AAGCTA	–	1.17	–	–	1.2
GAAAAA	–	1.13	–	–	1.16
CTGTCC	–	1.41	–	–	1.13
TGTTGA	–	1.07	–	–	1.17
GGTCTC	–	2.46	–	–	2.36
TTGGTT	–	1.44	–	–	1.45
TCCCTG	–	1.35	–	–	1.28
TTAGAT	–	0.999	1.16	1.05	–
CGTTCT	–	1.45	–	–	1.51
GCCGCA	–	0.931	0.91	0.954	–
TCTATC	–	1.19	–	–	1.27
AAGTTA	–	1.26	–	–	1.18
CACCCC	–	1.18	–	–	1.34
GACGAC	–	0.982	0.962	0.909	–
GGTACA	–	1.05	0.918	1.11	–
GTTCGA	–	1.07	–	–	0.997
TACAGC	–	0.973	–	–	1.08
TAGTTG	–	0.954	–	–	0.846
CCGTTC	–	1.43	–	–	1.44
TAACTT	–	1.45	–	–	1.47
ACACGC	–	1.1	–	–	1.07
CTCAGC	–	1.11	–	–	1.36

Fetched one by one from the entries so far (2):
Sequence	binding signal (EHF)	binding signal (ETV5)	binding signal (ETV2)	binding signal (SPIB)	binding signal (ETV3L)
GCTCAC	1.51	1.47	1.63	1.44	1.57
CACCCC	–	1.18	–	–	1.34

Later entries.

Sequence	binding signal (EHF)	binding signal (ETV5)	binding signal (ETV2)	binding signal (SPIB)	binding signal (ETV3L)
ACCACG	–	0.988	–	–	0.975
TCTATA	–	1.17	–	–	1.09
GCTATG	–	1.13	–	–	1.16
TTACGC	–	1.19	–	–	1.05
TGATCC	–	1.3	–	–	1.28
AAATAA	–	1.37	–	–	1.26
TGGCCA	–	0.971	–	–	1.04
ACCTCC	1.31	1.43	–	1.4	1.49
AACCCG	1.54	1.51	–	–	1.34
AAGCCC	0.972	1.04	–	–	1.07
CCTCGG	1.33	1.2	–	–	1.23
CTCTTA	–	1.41	–	–	1.5
GCTGCA	1.08	0.941	–	–	1.11
GGTTCA	0.974	1.03	–	1.04	0.954
TGGATA	0.964	0.985	–	–	1.04
TGTATG	1.2	1.28	–	–	1.23
TCCATT	1.27	1.36	–	–	1.22
CGTCTG	–	0.981	–	1.18	1.14
CGCTAT	1.06	1.1	–	1.12	0.981
CACACC	–	0.996	–	0.972	1.02
GATTTA	1.11	0.97	–	0.928	0.975
AAGGAT	1.25	1.17	–	–	1.21
CGGATC	1.02	1.03	–	–	0.979
GATGTA	–	1.37	–	1.31	1.39

Sequence	binding signal (EHF)	binding signal (ETV5)	binding signal (ETV2)	binding signal (SPIB)	binding signal (ETV3L)
TGATGC	1.58	1.49	–	–	1.61
AGTACT	–	1.19	–	–	1.12
TAATCG	1.07	1.07	–	–	1.09
TCAATG	1.04	1.02	–	1.11	1.05
AAGACT	0.999	1.09	–	–	1.04
CCCGAT	1.22	1.2	–	–	1.14
TCAGAT	0.965	0.952	–	1.02	1
CCTAAT	–	1.31	–	1.44	1.33
CTACAG	1.05	1.07	–	0.999	1.13
GCTAAG	1.05	0.996	–	0.997	0.962
TCCGCC	1.73	1.69	–	–	1.59
TAAGTA	1.19	1.18	–	1.22	1.22
TAAATG	1.27	1.38	–	–	1.39
CAATAC	1.2	1.26	–	–	1.3
TAGGTC	0.974	1.06	–	1.01	1.02
CTTCAC	1.41	1.37	–	–	1.44
AAGCAT	–	1.06	–	1.14	1.09
TCATCT	1.13	1.19	–	–	1.22
ACTTGA	0.964	0.95	–	0.961	0.99
TTTCCC	1.69	1.93	–	–	1.7
TGTCAA	0.956	0.982	–	–	1.07
TATTAG	–	1.04	–	0.893	1.04
GAAGTA	2.13	2.16	–	1.95	1.79
TCTTCG	1.31	1.51	–	–	–
